Patent US20130323819A1 (HERA PHARMACEUTICALS, published 2013)
Results are given in words; binding and its absence hold for the method and conditions named. Some entries that bind do so weakly or less than the wild type. Tags and fused reporters may be left off the sequences shown.

The chains behind the UniProt entries cited, without tags or fusion partners. Residues count along the entry.
UniProt P23504, residues 39-1532: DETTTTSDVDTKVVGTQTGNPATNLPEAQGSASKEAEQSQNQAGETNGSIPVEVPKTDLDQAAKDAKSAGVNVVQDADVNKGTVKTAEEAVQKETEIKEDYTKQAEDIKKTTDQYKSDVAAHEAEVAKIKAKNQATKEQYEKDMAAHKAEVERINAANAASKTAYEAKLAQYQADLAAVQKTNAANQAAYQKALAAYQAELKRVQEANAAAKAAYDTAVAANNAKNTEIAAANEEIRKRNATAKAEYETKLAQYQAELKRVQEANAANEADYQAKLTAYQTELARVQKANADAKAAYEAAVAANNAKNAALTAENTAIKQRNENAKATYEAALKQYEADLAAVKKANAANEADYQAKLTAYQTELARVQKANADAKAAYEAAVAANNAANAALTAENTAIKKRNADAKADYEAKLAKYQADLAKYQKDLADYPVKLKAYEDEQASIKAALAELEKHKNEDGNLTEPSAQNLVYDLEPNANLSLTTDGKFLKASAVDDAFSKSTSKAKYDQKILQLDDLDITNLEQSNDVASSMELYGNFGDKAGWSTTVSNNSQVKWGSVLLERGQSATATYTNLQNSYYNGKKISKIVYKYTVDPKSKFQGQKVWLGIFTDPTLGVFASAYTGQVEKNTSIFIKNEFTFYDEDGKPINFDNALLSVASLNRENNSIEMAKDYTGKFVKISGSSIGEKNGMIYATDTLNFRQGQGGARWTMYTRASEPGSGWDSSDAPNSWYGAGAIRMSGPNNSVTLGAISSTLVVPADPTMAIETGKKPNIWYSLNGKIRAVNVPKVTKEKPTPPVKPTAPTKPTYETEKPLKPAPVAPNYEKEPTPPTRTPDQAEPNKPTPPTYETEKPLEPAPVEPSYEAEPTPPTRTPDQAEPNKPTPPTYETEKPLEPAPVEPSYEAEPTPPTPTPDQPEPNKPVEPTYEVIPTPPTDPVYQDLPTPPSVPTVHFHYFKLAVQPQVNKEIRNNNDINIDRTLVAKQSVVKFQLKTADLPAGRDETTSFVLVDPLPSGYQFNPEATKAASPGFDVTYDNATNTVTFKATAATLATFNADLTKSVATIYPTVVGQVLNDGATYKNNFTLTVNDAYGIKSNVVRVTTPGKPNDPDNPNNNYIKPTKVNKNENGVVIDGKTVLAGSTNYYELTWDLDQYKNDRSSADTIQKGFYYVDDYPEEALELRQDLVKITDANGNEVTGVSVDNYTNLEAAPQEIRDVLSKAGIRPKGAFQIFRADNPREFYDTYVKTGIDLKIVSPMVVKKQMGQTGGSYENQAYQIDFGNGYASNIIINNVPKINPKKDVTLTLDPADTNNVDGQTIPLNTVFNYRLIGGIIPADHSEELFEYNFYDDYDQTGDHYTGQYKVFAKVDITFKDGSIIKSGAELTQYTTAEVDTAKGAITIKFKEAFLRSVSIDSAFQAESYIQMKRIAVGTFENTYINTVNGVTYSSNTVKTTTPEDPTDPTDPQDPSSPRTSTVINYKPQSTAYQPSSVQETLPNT

Target: SAI/II antigen (SAI/II adhesion of S. mutans) (Streptococcus mutans) (UniProt P23504)
Assay: ELISA, SAI/II coated, culture supernatant of the integrated strain

B1: secreted scFv anti-SAI/II (E-tagged) produced by L. paracasei pAF100 (plasmid) or L. paracasei EM182 (chromosomally integrated) (scFv)
scFv: AIVEGSAAQPAMDAQVKLQESGPDLVKPGASVKISCKASGYTFTDYNIHWVKQSRGKSLEWIGYIYPYNGNTYYNQKFKNKATLTVDNSSTSAYMELRSLTPEDSAVYYCATYFDYWGQGTTVTVSSGGGGSGGGGSGGGGSDIELTQSPAIMSASPGEKVTITCSASSSVSYMHWFQQKPGTSPKLWLYSTSNLASGVPARFSGSGSGTSYSLTISRMEAEDAATYYCHQRTSYPYTFGGGTKLEIKRAAAAGAPVPYPDPLEPRAA
notes: Same polypeptide from the plasmid strain and the integrated strain (pEM182 = pEM76 with the expression cassette of pAF100); tested as culture supernatant; also called pEM182
Q: Which binding does the source give for B1 here?
A: The binding was “binds”.
